This note sets out measurements from paper PMC4945075.

For assay [1], the target named is T1, SpoIIE-3XFLAG (full length FLAG tagged SpoIIE) (B. subtilis) (UniProt P37475).
T1 sequence: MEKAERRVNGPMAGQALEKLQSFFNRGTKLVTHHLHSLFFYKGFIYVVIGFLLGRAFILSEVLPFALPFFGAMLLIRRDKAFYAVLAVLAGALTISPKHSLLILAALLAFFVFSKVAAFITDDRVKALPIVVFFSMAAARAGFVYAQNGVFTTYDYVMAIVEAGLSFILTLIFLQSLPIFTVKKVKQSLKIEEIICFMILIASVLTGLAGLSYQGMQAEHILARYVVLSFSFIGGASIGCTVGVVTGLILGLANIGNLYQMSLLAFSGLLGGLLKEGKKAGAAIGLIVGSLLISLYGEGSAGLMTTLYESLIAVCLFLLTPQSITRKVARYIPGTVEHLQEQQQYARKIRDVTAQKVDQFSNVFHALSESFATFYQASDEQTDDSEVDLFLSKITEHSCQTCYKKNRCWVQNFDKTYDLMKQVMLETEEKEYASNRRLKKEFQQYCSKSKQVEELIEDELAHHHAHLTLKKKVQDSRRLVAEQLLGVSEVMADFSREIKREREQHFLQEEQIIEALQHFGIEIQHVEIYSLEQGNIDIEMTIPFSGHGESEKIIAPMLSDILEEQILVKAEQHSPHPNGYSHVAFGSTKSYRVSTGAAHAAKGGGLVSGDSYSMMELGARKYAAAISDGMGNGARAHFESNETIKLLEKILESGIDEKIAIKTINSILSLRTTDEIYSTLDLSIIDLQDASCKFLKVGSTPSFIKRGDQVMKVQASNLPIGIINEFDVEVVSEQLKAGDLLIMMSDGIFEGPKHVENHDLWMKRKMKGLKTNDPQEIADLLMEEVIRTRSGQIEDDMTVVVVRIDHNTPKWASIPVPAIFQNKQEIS
The assay is described as follows: co-IP; extracts of sporulating B. subtilis cells (2.5 hours after resuspension), membrane proteins solubilized with 2% digitonin, anti-FLAG M2 magnetic beads 1 hour at 4°C, washes with 0.1% digitonin; Western blot. For orientation: Immunoblotting shows a protein as a band on a membrane.

For assay [2], the target named is T2, His6-tagged cyt-RodZ (cytosolic part of RodZ) (B. subtilis).
T2 sequence: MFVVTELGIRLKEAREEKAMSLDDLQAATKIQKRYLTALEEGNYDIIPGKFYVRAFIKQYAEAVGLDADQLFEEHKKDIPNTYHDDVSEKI
Description: pull-down; His6-cyt-RodZ and S-tagged cyt-SpoIIE co-expressed in E. coli BL21 (DE3) (pETDuet); clarified lysate in 20 mM Tris-HCl pH 8.0, 150 mM NaCl on Ni Sepharose HP column, imidazole step elution; Western blot with anti-His-tag and anti-S-tag.

Results are given in words; binding and its absence hold for the method and conditions named. Binding seen in cells or lysates may run through a third protein. Binding calls can cover weak binding; strength is not graded here. Tags and fused reporters may be left off the sequences shown.

CFP-RodZ (from UniProt A0AAT9J3Y0): the binding entry in assay [1] was “binds”.

On to “S-tagged cyt-SpoIIE (whole cytosolic part of SpoIIE, regions II+III) (B. subtilis) (domain or fragment)”, for which, in assay [2], the binding entry is “binds”.
